In the supplement of paper PMC10849652 one finds log2 fold change data, which are given here for 33 targets.

By UniProt entry, the sequences of proteins in these tests, tags left out. Where a name states a change or a piece, a line headed by the entry shows the natural chain unless it says otherwise.
UniProt O14757: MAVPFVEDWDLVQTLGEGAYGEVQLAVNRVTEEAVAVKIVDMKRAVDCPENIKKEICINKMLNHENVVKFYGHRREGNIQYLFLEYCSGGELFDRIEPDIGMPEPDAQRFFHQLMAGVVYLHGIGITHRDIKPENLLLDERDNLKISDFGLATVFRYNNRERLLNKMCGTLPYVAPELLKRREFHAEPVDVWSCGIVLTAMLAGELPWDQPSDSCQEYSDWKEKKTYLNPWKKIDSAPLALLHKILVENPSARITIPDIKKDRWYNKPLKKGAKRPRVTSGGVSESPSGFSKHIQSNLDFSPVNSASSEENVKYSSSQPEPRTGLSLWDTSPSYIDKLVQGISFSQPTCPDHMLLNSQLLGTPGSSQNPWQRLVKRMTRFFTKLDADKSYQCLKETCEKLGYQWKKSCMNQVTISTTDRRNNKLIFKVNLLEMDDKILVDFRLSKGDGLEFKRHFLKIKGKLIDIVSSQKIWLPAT
UniProt Q8IY22: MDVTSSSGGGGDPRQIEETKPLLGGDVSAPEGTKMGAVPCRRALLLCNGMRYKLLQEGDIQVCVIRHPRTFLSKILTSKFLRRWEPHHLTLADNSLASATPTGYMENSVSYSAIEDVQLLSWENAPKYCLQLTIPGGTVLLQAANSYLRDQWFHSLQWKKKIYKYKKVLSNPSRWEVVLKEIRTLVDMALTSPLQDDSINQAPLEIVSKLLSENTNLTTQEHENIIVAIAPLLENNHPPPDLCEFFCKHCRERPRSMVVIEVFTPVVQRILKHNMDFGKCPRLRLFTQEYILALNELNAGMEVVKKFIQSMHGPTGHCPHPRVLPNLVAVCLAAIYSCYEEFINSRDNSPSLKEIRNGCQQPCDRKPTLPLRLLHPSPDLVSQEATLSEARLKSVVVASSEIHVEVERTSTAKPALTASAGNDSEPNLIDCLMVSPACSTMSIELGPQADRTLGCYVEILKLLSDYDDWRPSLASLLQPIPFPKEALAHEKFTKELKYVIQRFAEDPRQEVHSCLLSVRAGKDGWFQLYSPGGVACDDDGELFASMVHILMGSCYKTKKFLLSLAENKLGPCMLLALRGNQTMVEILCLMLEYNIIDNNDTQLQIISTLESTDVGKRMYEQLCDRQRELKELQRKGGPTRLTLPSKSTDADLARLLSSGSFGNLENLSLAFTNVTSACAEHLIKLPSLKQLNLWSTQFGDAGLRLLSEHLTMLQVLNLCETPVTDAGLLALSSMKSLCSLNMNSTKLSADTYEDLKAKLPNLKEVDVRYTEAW
UniProt P35790, whole entry, looked up: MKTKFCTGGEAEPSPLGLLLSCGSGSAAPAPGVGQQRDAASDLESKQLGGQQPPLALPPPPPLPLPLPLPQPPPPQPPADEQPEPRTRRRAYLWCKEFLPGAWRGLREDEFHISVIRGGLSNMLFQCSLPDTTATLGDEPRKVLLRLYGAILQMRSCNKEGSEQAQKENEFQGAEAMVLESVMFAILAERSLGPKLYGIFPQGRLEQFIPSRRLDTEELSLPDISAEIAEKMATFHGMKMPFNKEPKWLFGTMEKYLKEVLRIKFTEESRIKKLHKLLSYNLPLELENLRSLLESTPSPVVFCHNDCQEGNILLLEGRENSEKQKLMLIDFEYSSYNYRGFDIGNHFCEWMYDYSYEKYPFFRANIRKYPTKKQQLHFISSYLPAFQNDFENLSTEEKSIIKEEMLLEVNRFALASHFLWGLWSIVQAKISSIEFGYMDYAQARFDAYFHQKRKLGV
UniProt P24386: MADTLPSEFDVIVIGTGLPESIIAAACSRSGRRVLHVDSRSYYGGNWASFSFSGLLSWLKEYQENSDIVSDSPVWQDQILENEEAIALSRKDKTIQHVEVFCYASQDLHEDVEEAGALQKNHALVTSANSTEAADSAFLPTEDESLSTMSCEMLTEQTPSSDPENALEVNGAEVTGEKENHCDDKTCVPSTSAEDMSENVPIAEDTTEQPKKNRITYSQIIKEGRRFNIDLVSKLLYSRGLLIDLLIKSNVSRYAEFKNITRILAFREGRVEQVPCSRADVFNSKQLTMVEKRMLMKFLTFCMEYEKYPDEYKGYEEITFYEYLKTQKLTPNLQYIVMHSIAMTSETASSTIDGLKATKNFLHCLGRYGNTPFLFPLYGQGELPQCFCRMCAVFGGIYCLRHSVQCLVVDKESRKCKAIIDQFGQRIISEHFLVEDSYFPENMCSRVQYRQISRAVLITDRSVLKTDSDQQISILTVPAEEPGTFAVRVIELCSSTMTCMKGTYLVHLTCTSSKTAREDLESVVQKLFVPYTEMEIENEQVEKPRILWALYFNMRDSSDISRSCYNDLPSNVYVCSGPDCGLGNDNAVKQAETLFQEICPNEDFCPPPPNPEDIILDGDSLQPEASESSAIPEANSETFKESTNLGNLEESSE
UniProt Q9BQ75: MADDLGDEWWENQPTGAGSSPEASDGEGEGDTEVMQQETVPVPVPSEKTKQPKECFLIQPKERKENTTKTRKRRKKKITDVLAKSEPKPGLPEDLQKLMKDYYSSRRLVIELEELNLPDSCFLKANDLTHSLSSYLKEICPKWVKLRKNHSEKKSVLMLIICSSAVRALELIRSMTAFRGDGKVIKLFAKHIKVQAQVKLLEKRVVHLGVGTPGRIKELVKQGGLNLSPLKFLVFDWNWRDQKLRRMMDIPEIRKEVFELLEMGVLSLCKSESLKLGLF
UniProt Q9BY43: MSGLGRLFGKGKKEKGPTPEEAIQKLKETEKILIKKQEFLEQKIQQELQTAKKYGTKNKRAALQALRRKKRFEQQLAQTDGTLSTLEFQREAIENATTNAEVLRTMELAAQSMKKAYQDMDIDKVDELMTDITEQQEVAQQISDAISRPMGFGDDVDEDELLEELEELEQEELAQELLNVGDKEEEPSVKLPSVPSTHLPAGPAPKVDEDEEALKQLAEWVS
UniProt Q86WJ1: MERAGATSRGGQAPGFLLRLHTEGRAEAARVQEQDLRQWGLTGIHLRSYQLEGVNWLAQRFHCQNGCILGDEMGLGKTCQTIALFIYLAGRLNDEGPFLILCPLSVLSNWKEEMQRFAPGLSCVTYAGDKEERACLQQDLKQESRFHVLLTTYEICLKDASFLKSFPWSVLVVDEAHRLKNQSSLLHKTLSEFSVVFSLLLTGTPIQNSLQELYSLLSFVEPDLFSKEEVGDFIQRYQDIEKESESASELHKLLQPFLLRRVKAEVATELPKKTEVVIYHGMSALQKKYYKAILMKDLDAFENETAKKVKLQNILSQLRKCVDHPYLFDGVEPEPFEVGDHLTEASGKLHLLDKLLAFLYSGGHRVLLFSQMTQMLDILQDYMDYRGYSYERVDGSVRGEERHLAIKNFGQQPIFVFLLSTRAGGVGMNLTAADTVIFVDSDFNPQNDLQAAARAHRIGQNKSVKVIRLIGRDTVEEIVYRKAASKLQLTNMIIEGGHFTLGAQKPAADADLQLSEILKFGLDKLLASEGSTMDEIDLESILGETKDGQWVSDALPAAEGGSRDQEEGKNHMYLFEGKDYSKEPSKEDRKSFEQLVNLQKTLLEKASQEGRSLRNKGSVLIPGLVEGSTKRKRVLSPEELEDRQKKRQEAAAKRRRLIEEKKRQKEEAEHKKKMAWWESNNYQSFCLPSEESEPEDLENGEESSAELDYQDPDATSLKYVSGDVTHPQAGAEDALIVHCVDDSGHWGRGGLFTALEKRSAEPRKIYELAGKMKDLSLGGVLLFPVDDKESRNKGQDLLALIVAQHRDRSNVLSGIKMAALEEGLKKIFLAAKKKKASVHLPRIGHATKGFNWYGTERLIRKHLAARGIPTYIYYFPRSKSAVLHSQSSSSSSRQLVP
UniProt Q12873: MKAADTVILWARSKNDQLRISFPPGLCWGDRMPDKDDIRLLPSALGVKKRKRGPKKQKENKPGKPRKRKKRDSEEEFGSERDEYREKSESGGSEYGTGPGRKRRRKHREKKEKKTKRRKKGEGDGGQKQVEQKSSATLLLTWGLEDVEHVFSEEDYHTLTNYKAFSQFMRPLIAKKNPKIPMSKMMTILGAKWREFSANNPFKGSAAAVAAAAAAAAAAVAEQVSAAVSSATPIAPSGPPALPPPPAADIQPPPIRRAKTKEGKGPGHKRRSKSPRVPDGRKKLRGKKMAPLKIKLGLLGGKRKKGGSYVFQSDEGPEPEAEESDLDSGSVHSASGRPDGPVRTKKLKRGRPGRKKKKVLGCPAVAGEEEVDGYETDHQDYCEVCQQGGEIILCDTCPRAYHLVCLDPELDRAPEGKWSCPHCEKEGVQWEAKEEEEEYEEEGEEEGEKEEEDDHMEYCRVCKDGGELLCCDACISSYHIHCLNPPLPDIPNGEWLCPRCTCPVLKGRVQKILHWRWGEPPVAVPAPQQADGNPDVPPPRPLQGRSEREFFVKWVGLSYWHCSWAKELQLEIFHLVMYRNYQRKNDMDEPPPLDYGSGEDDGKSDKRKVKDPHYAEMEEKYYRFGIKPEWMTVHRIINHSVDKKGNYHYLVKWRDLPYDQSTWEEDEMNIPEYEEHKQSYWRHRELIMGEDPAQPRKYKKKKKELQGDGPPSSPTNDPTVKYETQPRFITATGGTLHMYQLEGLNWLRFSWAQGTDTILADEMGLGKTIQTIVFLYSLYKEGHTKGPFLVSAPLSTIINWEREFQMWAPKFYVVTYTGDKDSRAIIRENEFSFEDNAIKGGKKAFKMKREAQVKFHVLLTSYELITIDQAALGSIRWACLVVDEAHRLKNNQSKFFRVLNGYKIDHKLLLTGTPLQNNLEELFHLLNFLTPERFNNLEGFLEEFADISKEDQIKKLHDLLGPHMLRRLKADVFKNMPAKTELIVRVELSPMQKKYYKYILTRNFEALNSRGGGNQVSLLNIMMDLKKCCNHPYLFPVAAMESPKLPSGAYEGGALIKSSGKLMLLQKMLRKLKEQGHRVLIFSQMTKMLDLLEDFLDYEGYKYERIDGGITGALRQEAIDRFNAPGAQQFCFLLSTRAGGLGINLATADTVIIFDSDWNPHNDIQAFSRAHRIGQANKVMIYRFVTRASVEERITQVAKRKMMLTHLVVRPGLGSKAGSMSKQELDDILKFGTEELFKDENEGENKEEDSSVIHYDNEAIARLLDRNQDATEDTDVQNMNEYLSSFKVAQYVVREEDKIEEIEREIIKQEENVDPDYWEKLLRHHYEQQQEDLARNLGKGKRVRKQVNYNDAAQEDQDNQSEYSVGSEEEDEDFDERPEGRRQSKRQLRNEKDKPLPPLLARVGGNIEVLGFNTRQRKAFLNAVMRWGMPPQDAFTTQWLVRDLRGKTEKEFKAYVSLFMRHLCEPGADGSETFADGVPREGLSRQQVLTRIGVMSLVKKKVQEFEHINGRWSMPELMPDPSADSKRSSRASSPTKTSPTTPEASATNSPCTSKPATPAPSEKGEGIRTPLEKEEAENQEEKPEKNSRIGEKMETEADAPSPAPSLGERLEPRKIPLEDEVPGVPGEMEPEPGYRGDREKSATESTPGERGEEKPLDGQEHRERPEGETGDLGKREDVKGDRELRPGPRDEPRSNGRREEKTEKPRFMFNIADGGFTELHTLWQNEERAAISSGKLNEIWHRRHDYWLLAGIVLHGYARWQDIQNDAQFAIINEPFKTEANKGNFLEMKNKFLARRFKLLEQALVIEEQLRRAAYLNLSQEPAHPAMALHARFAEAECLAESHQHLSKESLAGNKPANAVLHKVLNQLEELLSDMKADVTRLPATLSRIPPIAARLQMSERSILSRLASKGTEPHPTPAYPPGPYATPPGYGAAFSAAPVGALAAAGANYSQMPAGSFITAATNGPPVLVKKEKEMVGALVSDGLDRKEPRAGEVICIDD
UniProt O15111: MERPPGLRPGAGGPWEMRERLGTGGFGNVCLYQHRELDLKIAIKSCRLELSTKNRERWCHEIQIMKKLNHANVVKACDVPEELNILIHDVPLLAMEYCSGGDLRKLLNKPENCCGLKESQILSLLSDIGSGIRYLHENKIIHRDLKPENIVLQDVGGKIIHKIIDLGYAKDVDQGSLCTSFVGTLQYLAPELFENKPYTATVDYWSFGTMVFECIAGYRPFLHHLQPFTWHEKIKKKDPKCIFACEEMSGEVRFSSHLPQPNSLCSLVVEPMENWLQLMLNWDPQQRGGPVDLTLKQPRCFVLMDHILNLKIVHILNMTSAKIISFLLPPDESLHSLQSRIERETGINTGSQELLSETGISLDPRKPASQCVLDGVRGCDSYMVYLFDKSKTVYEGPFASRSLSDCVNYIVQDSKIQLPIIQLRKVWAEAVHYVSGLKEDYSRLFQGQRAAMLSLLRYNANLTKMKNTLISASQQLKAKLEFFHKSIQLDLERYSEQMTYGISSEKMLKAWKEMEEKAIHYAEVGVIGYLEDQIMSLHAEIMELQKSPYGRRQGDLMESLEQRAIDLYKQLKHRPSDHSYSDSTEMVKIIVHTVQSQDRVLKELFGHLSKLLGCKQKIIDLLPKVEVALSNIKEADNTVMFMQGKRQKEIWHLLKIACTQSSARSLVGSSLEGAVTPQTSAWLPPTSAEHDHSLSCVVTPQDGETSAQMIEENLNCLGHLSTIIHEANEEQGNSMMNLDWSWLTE

Some of the results follow.

Compound in this assay: CC1=C(C2=C(C=C1)C(=O)C3=CC=CC=C3N2CCCN)C
Description: log2 fold change, soluble protein after heating vs DMSO (PISA); higher = thermal stabilisation; K562 lysate, 10 uM; active = over 0.2 and 3.5 SD of the protein, either way, in both replicates (recomputed). The method, boiled down: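 A 30 min treatment with 10 μM compound was applied to crude K562 extract at 1 mg/mL protein in PBS pH 7.4 with 1 mM MgCl2. Heating for 3 min spanned 48°C-58°C, after which aliquots were pooled, adjusted to 0.5% NP-40 at 4°C and spun at 21,000xg for 90 min. TMTpro 16plex LC-MS/MS of the supernatant, with channel sums equalised, gave values recorded as log-two fold change in thermal stability against solvent controls, from duplicates.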
Take CIT isoform 4 (UniProt O14578): the log2 fold change was inactive: 0.005.

CHEK1 (UniProt O14757): the log2 fold change was inactive: 0.011.

Consider CHCHD2P9 (UniProt Q5T1J5), for which the log2 fold change is inactive: -0.004.

For the target CIRBP (UniProt Q14011), the log2 fold change was inactive: 0.

Take CMIP (UniProt Q8IY22): the log2 fold change is inactive: -0.021.

Turning to CHKA (UniProt P35790), the log2 fold change was inactive: 0.02.

Take CHCHD4 isoform 2 (UniProt Q8N4Q1): the log2 fold change was inactive: 0.002.

On to CHM (UniProt P24386), for which the log2 fold change was inactive: 0.035.

Consider CKM (UniProt P06732), for which the log2 fold change is inactive: -0.029.

As for CHID1 (UniProt Q9BWS9), the log2 fold change is inactive: 0.027.

As to CMSS1 (UniProt Q9BQ75), the log2 fold change was inactive: 0.027.

With CHMP4A isoform 2 (UniProt Q9BY43), the log2 fold change was inactive: -0.02.

As to CNBP isoform 4 (UniProt P62633), the log2 fold change was inactive: 0.057.

As to CHMP5 (UniProt Q9NZZ3), the log2 fold change is inactive: 0.007.

Take CMC1 (UniProt Q7Z7K0): the log2 fold change is inactive: -0.032.

For the target CHCHD3 (UniProt Q9NX63), the log2 fold change was inactive: 0.044.

For the target CMTM3 (UniProt Q96MX0), the log2 fold change was inactive: -0.06.

As for CIAO2B (UniProt Q9Y3D0), the log2 fold change was inactive: -0.001.

Regarding CKMT2 (UniProt P17540), the log2 fold change is inactive: -0.027.

CHRAC1 (UniProt Q9NRG0): the log2 fold change was inactive: -0.017.

With CISD2 (UniProt Q8N5K1), the log2 fold change is inactive: -0.03.

In the case of CIZ1 (UniProt Q9ULV3), the log2 fold change was inactive: -0.001.

With CHD1 (UniProt O14646), the log2 fold change is inactive: 0.018.

With CHURC1 isoform 2 (UniProt Q8WUH1), the log2 fold change is inactive: 0.057.

CIC (UniProt I3L2J0): the log2 fold change is inactive: -0.044.

On to CKAP5 (UniProt Q14008), for which the log2 fold change is inactive: 0.005.

Consider CHD5 (UniProt Q8TDI0), for which the log2 fold change is inactive: -0.026.

On to CHMP7 (UniProt Q8WUX9), for which the log2 fold change is inactive: -0.006.

CHD7 (UniProt Q9P2D1): the log2 fold change was inactive: -0.044.

Turning to CHD1L (UniProt Q86WJ1), the log2 fold change was inactive: -0.043.

Take CHD3 isoform 3 (UniProt Q12873): the log2 fold change is inactive: -0.018.

CHKB (UniProt Q9Y259): the log2 fold change is inactive: -0.009.

For CHUK (UniProt O15111), the log2 fold change was inactive: -0.014.
